From the supplement of paper PMC3334620
The full ranking holds about 33,000 sequences; the median of “E-score (-0.5 to 0.5)” is about -8e-05, and the highest 2% start at about 0.23. The list shows a part of the results.

These sequences were tested against T1, Nrg2 (UniProt P38082) (assay: PBM E-score (8-mer binding enrichment) (E-score (-0.5 to 0.5)); higher = stronger / more preferred TF binding). Conditions: protein concentration: 100 nM; construct: GST-full length.
T1 sequence: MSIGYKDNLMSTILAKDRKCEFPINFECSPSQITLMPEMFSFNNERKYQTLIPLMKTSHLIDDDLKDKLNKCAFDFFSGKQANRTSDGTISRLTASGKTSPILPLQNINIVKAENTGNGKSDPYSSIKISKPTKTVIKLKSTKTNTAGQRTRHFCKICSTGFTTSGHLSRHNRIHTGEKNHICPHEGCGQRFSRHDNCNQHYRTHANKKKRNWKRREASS
Procedure, shortened: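 Detection of bound protein used fluorescent anti-GST, with scans normalised by masliner. The proteins were GST-tagged yeast transcription factors applied at about 100-200 nM to universal all-10-mer Agilent arrays made double-stranded by primer extension. Each ungapped eight-base word, pooled with its reverse complement, was scored with an E-score from the Universal PBM Analysis Suite.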

Sequence	PBM E-score
CCGCCATC	-0.163
GAGGTAAC	0.047
ACAAGAAC	0.262
CGCGGCCA	0.0256
AATGGCTG	-0.0152
AGAACTTG	0.0373
CATCCTCC	-0.175
GTAGCTTA	0.195
ATCATTAC	0.149
ATACTGTG	-0.0451
ATTACTCG	0.178
CGTGGCTC	-0.274
ATGTGAGA	0.103
ATAGTCGC	0.0565
CAACCCTA	0.0574
CCTCGCCC	0.016
ACCACTCA	0.0365
CCGCATTC	-0.0499
AAGCCAGC	-0.0708
CCGGCCTA	0.0164
CTTCTATC	-0.0682
GCACATGC	0.0425

Sequence	PBM E-score
GATTAGAC	0.0407
AGCGGACC	-0.036
CCGGATTA	0.0135
GGTGCTAC	-0.128
CGTACATC	-0.0477
ATGAGGGG	0.0427
ATACTCAC	-0.00276
GAGTAAGC	-0.0798
ACACATCG	-0.0659
CATAAACG	-0.0278
ATTGCTTA	0.0123
ACCAGAAT	0.00151
ATAACGGC	0.157
CTGTCGCA	0.0104
ATTTGCAC	0.0924
CAGCTTAG	-0.0439
GCCCGCCA	-0.0582
CCACAGCG	-0.0779
GGCGTCAA	0.0658
ACCCGCAT	0.191
ATTTTGTG	0.0327
CCTTGATC	0.17

Sequence	PBM E-score
CGCCCCAG	0.0362
ACATGAAG	-0.0531
CATCATTA	0.231
CACAATGG	0.16
AGCATATA	0.0646
AGCGGCGG	0.126
GAGCATGC	-0.00298
TTATATAA	0.192
GGGTCAGA	-0.087
CTCTACAA	-0.0203
AGATACAA	0.162
CACCGAGA	0.032
AAGCGGGA	-0.0677
ACAGCGGA	0.0846
CCAACTGC	0.0917
AACCGCAC	0.108
AGTCGCGG	-0.183
CACTAGAG	0.00401
TGCGGAAA	0.0306
ACGTTACA	-0.111
CGGGCTAG	-0.0659
GGTGGAAC	-0.169

Looked up one by one from above:
Sequence	PBM E-score
CACCGAGA	0.032
CGGGCTAG	-0.0659
CACAATGG	0.16
GGTGGAAC	-0.169
ACGTTACA	-0.111

Following part

Sequence	PBM E-score
TCTCGAAA	0.124
AACAGCGG	-0.0995
AGCTTTGC	-0.147
ACGAGAAA	0.174
AAATTGTC	0.24
AAGTCCCG	-0.069
AAGTTAAT	-0.00228
ACATATCC	0.0887
ACTGTTCC	-0.156
TAGATGCA	0.0915
GAGCCTCC	-0.193
CCCTTCCA	-0.164
ACGATATC	0.0337
GATTGAAC	0.0736
ACCCAACT	0.111
CAATAAAC	0.152
AATTGTTA	0.0656
CAAAAACA	0.00942
AATGCTCG	0.0937
AACCCCGC	-0.00789
CCAGCCTA	-0.0813
TACTCAAA	0.0341

Sequence	PBM E-score
CCGTGTTC	0.203
ACTTTGCA	0.157
ACCGATCA	0.0302
ATTGGTAC	-0.0096
AACGAATC	0.143
TACATGCA	0.116
AGTCCCAT	-0.0808
TCTGTCCA	-0.0691
CGGATTTC	0.0939
AGAGTTTC	-0.258
GAACCCTA	0.0863
CAGGAGTA	-0.028
AAATCTCG	0.0889
TCAGGGGA	0.159
CCACCTTC	-0.28
CCCCGCAA	0.115
CCTCTCAA	0.00399
GGTTCGAA	0.221
CAGTGAGG	-0.23
ACAAGCAG	-0.117
CACTTGCG	-0.075
